Results taken from PubChem BioAssay AID256 (DTP/NCI, 2004).
The list does not hold the whole screen: it gathers tests that were run many times, whatever their T/C, doses with no T/C, and many T/C values between a quarter and a half above the control. Further doses and runs are listed elsewhere. T/C: endpoint of the treated group in % of that of the vehicle group. Some doses have a count of surviving animals in place of a T/C: the source files T/C as zero there, which appears to mark a toxic dose or a test without result, not a measured value. Some survivor counts are full or nearly so, which does not show that the dose was tolerated: the source hardly ever lists a survival T/C far under the control, and the zero likely stands for such cases as well. Survivors were counted at the toxicity check, usually on the fifth day, unless a day is given; later deaths do not show. Schedule codes are those of the source, taken here to give the interval after Q, in days (D) or hours (H), and the number of doses after X. Marks such as (2×) count equal records among those shown. Some entries were tested several times; the values are given in rising order. For survival time, the PubChem record calls one and a half times the control and up active, and a quarter to a half above the control has no call in these data; cut-offs in other NCI protocols can differ. Some T/C values carry the count of animals alive at the toxicity check (mostly the fifth day); without a count, all were alive then.

System: CD2F1 mice, L1210 leukemia ip, survival T/C
Experiment: NCI In Vivo Anticancer Drug Screen. Data for tumor model L1210 Leukemia (intraperitoneal) in CD2F1 (CDF1) mice
Conditions: higher T/C = longer survival
Procedure, shortened: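 Vehicle-treated tumor-bearing mice served as controls (C) for compound-treated mice (T). Reported figure is T divided by C.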

[1] = T/C endpoint: mean survival time, dose: 100.0 mg/kg/injection, schedule: Q01DX009 (ip), vehicle: saline with Tween-80
[2] = T/C endpoint: mean survival time, dose: 200.0 mg/kg/injection, schedule: Q04DX003 (ip), vehicle: saline with Tween-80
[3] = T/C endpoint: mean survival time, dose: 400.0 mg/kg/injection, schedule: Q04DX003 (ip), vehicle: saline with Tween-80
[4] = T/C endpoint: mean survival time, dose: 200.0 mg/kg/injection, schedule: Q01DX009 (ip), vehicle: saline with Tween-80
[5] = T/C endpoint: mean survival time, dose: 100.0 mg/kg/injection, schedule: Q04DX003 (ip), vehicle: saline with Tween-80
[6] = T/C endpoint: mean survival time, dose: 100.0 mg/kg/injection, schedule: Q04DX003 (ip), vehicle: saline
[7] = T/C endpoint: mean survival time, dose: 200.0 mg/kg/injection, schedule: Q04DX003 (ip), vehicle: saline
[8] = T/C endpoint: mean survival time, dose: 400.0 mg/kg/injection, schedule: Q04DX003 (ip), vehicle: saline
[9] = T/C endpoint: median survival time, dose: 400.0 mg/kg/injection, schedule: Q01DX009 (ip), vehicle: Klucel (hydroxypropylcellulose) (HPC)
[10] = T/C endpoint: mean survival time, dose: 400.0 mg/kg/injection, schedule: Q01DX009 (ip), vehicle: saline with Tween-80
[11] = T/C endpoint: median survival time, dose: 200.0 mg/kg/injection, schedule: Q01DX005 (ip), vehicle: saline with Tween-80

CC1(C)CC23C4COC(=O)C2CCC1C3CC4=O (centres undefined)
survivor count (T/C endpoint: mean survival time, dose: 50.0 mg/kg/injection, schedule: Q01DX009 (ip), vehicle: DMSO): 3 of 6 | survivor count (T/C endpoint: mean survival time, dose: 100.0 mg/kg/injection, schedule: Q01DX009 (ip), vehicle: DMSO): 1 of 6

C1CC1C(=NN=C(C1CC1)C1CC1)C1CC1
survivor count [1]: 5 of 6 | survivor count [2]: 5 of 6 | survivor count [3]: 6 of 6

O=C1C=C(Nc2cccc(C(=O)O)c2)c2ccccc2C1=O
survivor count (T/C endpoint: mean survival time, dose: 150.0 mg/kg/injection, schedule: Q01DX001 (ip), vehicle: saline): 3 of 6

COc1cc(Cl)ccc1NC(=O)Nc1ccccc1C
survivor count (T/C endpoint: mean survival time, dose: 100.0 mg/kg/injection, schedule: Q04DX002 (ip), vehicle: saline with Tween-80): 3 of 3

CCCCCCC[CH2][Sn]([CH2]CCCCCCC)([NH]S(=O)(=O)c1ccc(C)cc1)[NH]S(=O)(=O)c1ccc(C)cc1
survivor count (T/C endpoint: mean survival time, dose: 300.0 mg/kg/injection, schedule: Q01DX001 (ip), vehicle: other): 0 of 6

CC(C)CC(N)C(=O)O (centres undefined) (tested in a mixture with another compound)
survivor count (T/C endpoint: median survival time, dose: 3.13 mg/kg/injection, schedule: Q04DX002 (ip), vehicle: saline): 1 of 3 | survivor count (T/C endpoint: median survival time, dose: 200.0 mg/kg/injection, schedule: Q04DX002 (ip), vehicle: saline): 0 of 3 | survivor count (T/C endpoint: median survival time, dose: 400.0 mg/kg/injection, schedule: Q04DX002 (ip), vehicle: saline): 0 of 3 (2×)

Cc1c(C)c(C)c2c(c1C)CCC2O (centres undefined)
survivor count [1]: 0 of 3 (2×) | survivor count [4]: 0 of 3 (2×)

CCNC(=O)C(C)Br (centres undefined)
survivor count (T/C endpoint: mean survival time, dose: 400.0 mg/kg/injection, schedule: Q01DX001 (ip), vehicle: saline): 2 of 4

O=[N+]([O-])c1ccc(Sc2ccncn2)c([N+](=O)[O-])c1
survivor count (T/C endpoint: median survival time, dose: 200.0 mg/kg/injection, schedule: Q01DX009 (ip), vehicle: saline with Tween-80): 1 of 6

CC(=O)OC1CCC2(C)C3CCC4(C)C(OC(=O)c5ccccc5)CCC4C3C3C(=O)OC32C1 (centres undefined)
survivor count (T/C endpoint: mean survival time, dose: 100.0 mg/kg/injection, schedule: Q01DX001 (ip), vehicle: saline with Tween-80): 6 of 6 | survivor count (T/C endpoint: mean survival time, dose: 400.0 mg/kg/injection, schedule: Q01DX001 (ip), vehicle: saline with Tween-80): 6 of 6

CC(=O)OCC1OC(OC(C)=O)C(NC(=O)N(CCSCCCl)N=O)C(OC(C)=O)C1OC(C)=O (centres undefined)
survivor count (T/C endpoint: mean survival time, dose: 12.5 mg/kg/injection, schedule: Q01DX001 (ip), vehicle: distilled water + Tween-80): 3 of 6 | survivor count (T/C endpoint: mean survival time, dose: 25.0 mg/kg/injection, schedule: Q01DX001 (ip), vehicle: distilled water + Tween-80): 4 of 6 | survivor count (T/C endpoint: mean survival time, dose: 50.0 mg/kg/injection, schedule: Q01DX001 (ip), vehicle: distilled water + Tween-80): 0 of 6 | survivor count (T/C endpoint: mean survival time, dose: 100.0 mg/kg/injection, schedule: Q01DX001 (ip), vehicle: distilled water + Tween-80): 0 of 6

CC12CC[C]([Hg][I])(CC1)C2(C)C
survivor count (T/C endpoint: mean survival time, dose: 50.0 mg/kg/injection, schedule: Q01DX009 (ip), vehicle: saline with Tween-80): 3 of 3 | survivor count [1]: 0 of 3 | survivor count [4]: 0 of 3

CC(C)C(=O)c1ccco1
survivor count [5]: 2 of 6 | survivor count [2]: 0 of 6 | survivor count [3]: 0 of 6

O=c1[nH]cc(N(CCCl)CCCl)c(=O)[nH]1
T/C (T/C endpoint: mean survival time, dose: 0.39 mg/kg/injection, schedule: Q01DX009 (ip), vehicle: saline): 128 % of control | T/C (T/C endpoint: mean survival time, dose: 0.65 mg/kg/injection, schedule: Q01DX009 (ip), vehicle: saline): 139 % of control | T/C (T/C endpoint: mean survival time, dose: 1.1 mg/kg/injection, schedule: Q01DX001 (ip), vehicle: saline): 130 % of control | T/C (T/C endpoint: mean survival time, dose: 1.8 mg/kg/injection, schedule: Q01DX001 (ip), vehicle: saline): 147 % of control | survivor count (T/C endpoint: mean survival time, dose: 3.0 mg/kg/injection, schedule: Q01DX009 (ip), vehicle: saline): 10 of 10 | T/C (T/C endpoint: mean survival time, dose: 3.0 mg/kg/injection, schedule: Q04DX003 (ip), vehicle: saline): 140 % of control | survivor count (T/C endpoint: mean survival time, dose: 14.0 mg/kg/injection, schedule: Q01DX001 (ip), vehicle: saline): 9 of 10

O=C1c2ccccc2C(=O)c2c(NCCN3CCCCC3)ccc(NCCN3CCCCC3)c21
survivor count (T/C endpoint: mean survival time, dose: 128.0 mg/kg/injection, schedule: Q01DX009 (ip), vehicle: acid diluted with saline): 0 of 6

CC(=O)C1CN(C(C)(C)C)C1
survivor count [6]: 3 of 6 | survivor count [7]: 0 of 6 | survivor count [8]: 0 of 6

Cc1cc(N/N=C/c2ccccn2)nc2ccccc12
survivor count (T/C endpoint: median survival time, dose: 100.0 mg/kg/injection, schedule: Q01DX009 (ip), vehicle: Klucel (hydroxypropylcellulose) (HPC)): 3 of 6

OC(CCl)Cc1ccccc1 (centres undefined)
survivor count [2]: 3 of 6 | survivor count [3]: 0 of 6

CC(C)(C)OC(=O)NC(CCCCNC(=O)C(F)(F)F)C(=O)ON1C(=O)CCC1=O (centres undefined)
survivor count [2]: 6 of 6 | survivor count [3]: 2 of 6

N=C(N)SC1c2ccccc2-c2ccc(N)cc21 (centres undefined)
survivor count [2]: 3 of 6 | survivor count [3]: 0 of 6

OCCC1CC1=C1CC1 (centres undefined)
survivor count (T/C endpoint: mean survival time, dose: 400.0 mg/kg/injection, schedule: Q04DX003 (ip), vehicle: Klucel (hydroxypropylcellulose) (HPC)): 0 of 6

CC1CCC(n2cnc3c(Cl)ncnc32)O1 (centres undefined)
T/C [9]: 134 and 137 % of control | survivor count [9]: 1 of 6 | survivor count (T/C endpoint: median survival time, dose: 800.0 mg/kg/injection, schedule: Q01DX009 (ip), vehicle: Klucel (hydroxypropylcellulose) (HPC)): 0 of 6

C[n+]1ccc(CCC(=O)Nc2ccccc2)cc1
survivor count [3]: 2 of 6

CCCCCCCCCCNC(=O)C[n+]1cccc(C(=O)N(C)C)c1
survivor count [6]: 0 of 6 | survivor count [7]: 0 of 6 | survivor count [8]: 0 of 6

NCCNCCNCc1ccccc1
survivor count (T/C endpoint: mean survival time, dose: 400.0 mg/kg/injection, schedule: Q01DX009 (ip), vehicle: saline): 0 of 6

CCN(Cc1cnc2nc(N)nc(N)c2n1)c1ccc(C(=O)NC(CCC(=O)O)C(=O)O)cc1 (centres undefined)
T/C (T/C endpoint: mean survival time, dose: 1.25 mg/kg/injection, schedule: Q01DX009 (ip), vehicle: sodium bicarbonate): 141 % of control | survivor count (T/C endpoint: mean survival time, dose: 25.0 mg/kg/injection, schedule: Q01DX009 (ip), vehicle: sodium bicarbonate): 6 of 6

O=[n+]1c2ccccc2n([O-])c2ccccc21.[Cl][Ni][Cl]
survivor count (T/C endpoint: median survival time, dose: 50.0 mg/kg/injection, schedule: Q01DX009 (ip), vehicle: saline with Tween-80): 5 of 6

CN1CCCC1CCNc1nc(-c2ccc(C(Cl)(Cl)Cl)cc2)nc(C(Cl)(Cl)Cl)n1 (centres undefined)
survivor count [4]: 5 of 6 | survivor count [10]: 2 of 6

O=C(CC(=O)C(F)(F)F)c1ccccc1.O=C(CC(=O)C(F)(F)F)c1ccccc1.[Cu]
survivor count [5]: 3 of 6 | survivor count [2]: 1 of 6 | survivor count [3]: 0 of 6

O=S(=O)(/C=C\S(=O)(=O)c1ccccc1)c1ccccc1
survivor count (T/C endpoint: mean survival time, dose: 50.0 mg/kg/injection, schedule: Q01DX009 (ip), vehicle: Klucel (hydroxypropylcellulose) (HPC)): 5 of 6 | survivor count (T/C endpoint: mean survival time, dose: 100.0 mg/kg/injection, schedule: Q01DX009 (ip), vehicle: Klucel (hydroxypropylcellulose) (HPC)): 1 of 6 | survivor count (T/C endpoint: mean survival time, dose: 200.0 mg/kg/injection, schedule: Q01DX009 (ip), vehicle: Klucel (hydroxypropylcellulose) (HPC)): 0 of 6 | survivor count (T/C endpoint: mean survival time, dose: 400.0 mg/kg/injection, schedule: Q01DX009 (ip), vehicle: Klucel (hydroxypropylcellulose) (HPC)): 0 of 6

OC(c1ccccc1)(c1ccccc1)c1ccccc1 (tested in a mixture with another compound)
survivor count [1]: 6 of 6 | survivor count [4]: 6 of 6 | survivor count [10]: 6 of 6

N#Cc1c(N)[nH]c2ccc(Sc3ccccc3)cc12
T/C (T/C endpoint: median survival time, dose: 72.0 mg/kg/injection, schedule: Q01DX005 (ip), vehicle: saline with Tween-80): 125 and 135 % of control | T/C (T/C endpoint: median survival time, dose: 100.0 mg/kg/injection, schedule: Q01DX005 (ip), vehicle: saline with Tween-80): 135 % of control [5 of 6 alive] | T/C [11]: 146 % of control [5 of 6 alive] | survivor count [11]: 3 of 6 | survivor count (T/C endpoint: median survival time, dose: 333.0 mg/kg/injection, schedule: Q01DX005 (ip), vehicle: saline with Tween-80): 0 of 6 and 1 of 6
